The other results are listed elsewhere or left out.

The chains behind the UniProt entries cited, without tags or fusion partners. Where a name states a change or a piece, a line headed by the entry shows the natural chain unless it says otherwise.
UniProt O95232: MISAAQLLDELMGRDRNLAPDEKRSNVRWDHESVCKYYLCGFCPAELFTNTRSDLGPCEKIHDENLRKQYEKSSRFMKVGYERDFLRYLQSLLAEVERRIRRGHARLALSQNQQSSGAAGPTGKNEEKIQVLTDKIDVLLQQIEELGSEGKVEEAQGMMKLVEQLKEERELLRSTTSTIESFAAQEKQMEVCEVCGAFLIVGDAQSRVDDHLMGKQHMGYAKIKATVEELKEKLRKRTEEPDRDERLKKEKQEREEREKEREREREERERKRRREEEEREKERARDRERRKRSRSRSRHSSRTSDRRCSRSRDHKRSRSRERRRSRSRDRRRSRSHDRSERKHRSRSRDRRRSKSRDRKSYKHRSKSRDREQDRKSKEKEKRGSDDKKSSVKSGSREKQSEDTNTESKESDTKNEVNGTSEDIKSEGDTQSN
UniProt Q9NQG1: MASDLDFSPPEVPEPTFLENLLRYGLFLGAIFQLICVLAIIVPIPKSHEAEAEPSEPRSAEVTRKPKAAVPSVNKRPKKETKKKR
UniProt Q6P0Q8: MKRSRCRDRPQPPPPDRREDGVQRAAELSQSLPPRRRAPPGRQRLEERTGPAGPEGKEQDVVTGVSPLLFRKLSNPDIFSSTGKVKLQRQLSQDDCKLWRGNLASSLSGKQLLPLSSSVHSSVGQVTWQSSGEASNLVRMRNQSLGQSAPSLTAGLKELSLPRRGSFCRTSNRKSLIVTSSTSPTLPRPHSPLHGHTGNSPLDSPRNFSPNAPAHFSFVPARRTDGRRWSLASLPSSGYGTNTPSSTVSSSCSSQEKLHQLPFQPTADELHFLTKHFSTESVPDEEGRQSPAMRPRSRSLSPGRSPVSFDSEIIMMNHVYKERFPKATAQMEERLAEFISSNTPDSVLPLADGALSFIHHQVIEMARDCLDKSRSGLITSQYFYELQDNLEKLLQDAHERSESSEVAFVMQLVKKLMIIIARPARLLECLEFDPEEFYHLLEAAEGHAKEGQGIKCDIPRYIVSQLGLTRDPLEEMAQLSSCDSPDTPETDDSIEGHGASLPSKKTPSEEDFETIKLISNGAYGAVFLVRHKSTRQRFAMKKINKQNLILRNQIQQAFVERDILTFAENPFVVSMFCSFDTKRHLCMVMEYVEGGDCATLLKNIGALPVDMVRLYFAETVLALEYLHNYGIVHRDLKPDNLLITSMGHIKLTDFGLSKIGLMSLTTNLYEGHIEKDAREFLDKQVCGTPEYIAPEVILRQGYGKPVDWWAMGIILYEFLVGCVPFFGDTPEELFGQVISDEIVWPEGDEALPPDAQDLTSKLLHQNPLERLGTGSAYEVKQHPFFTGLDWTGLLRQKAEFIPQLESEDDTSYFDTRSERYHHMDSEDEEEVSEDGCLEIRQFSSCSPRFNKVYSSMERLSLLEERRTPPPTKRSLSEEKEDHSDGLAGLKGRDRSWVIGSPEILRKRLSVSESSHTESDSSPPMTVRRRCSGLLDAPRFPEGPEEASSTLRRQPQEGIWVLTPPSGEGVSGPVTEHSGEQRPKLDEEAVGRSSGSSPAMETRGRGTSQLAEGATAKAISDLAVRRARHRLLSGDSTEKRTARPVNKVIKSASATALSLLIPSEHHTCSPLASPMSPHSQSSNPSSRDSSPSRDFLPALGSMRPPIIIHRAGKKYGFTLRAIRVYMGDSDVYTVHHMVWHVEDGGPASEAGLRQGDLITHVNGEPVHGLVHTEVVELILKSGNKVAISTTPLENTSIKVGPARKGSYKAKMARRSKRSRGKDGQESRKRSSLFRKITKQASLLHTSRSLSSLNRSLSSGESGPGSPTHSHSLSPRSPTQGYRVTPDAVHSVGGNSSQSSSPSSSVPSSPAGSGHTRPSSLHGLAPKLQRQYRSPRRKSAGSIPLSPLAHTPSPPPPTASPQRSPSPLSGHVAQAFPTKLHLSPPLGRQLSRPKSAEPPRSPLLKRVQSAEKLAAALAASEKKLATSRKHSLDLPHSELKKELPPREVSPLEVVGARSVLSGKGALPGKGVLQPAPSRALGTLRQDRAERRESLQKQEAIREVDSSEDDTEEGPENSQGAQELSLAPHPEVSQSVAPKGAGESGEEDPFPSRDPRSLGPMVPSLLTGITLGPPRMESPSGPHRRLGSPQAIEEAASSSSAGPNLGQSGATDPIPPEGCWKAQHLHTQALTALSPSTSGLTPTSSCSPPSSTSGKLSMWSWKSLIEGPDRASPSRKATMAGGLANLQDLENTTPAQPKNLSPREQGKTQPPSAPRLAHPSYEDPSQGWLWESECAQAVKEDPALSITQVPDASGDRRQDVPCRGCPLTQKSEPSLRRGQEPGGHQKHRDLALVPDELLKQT
UniProt Q92585: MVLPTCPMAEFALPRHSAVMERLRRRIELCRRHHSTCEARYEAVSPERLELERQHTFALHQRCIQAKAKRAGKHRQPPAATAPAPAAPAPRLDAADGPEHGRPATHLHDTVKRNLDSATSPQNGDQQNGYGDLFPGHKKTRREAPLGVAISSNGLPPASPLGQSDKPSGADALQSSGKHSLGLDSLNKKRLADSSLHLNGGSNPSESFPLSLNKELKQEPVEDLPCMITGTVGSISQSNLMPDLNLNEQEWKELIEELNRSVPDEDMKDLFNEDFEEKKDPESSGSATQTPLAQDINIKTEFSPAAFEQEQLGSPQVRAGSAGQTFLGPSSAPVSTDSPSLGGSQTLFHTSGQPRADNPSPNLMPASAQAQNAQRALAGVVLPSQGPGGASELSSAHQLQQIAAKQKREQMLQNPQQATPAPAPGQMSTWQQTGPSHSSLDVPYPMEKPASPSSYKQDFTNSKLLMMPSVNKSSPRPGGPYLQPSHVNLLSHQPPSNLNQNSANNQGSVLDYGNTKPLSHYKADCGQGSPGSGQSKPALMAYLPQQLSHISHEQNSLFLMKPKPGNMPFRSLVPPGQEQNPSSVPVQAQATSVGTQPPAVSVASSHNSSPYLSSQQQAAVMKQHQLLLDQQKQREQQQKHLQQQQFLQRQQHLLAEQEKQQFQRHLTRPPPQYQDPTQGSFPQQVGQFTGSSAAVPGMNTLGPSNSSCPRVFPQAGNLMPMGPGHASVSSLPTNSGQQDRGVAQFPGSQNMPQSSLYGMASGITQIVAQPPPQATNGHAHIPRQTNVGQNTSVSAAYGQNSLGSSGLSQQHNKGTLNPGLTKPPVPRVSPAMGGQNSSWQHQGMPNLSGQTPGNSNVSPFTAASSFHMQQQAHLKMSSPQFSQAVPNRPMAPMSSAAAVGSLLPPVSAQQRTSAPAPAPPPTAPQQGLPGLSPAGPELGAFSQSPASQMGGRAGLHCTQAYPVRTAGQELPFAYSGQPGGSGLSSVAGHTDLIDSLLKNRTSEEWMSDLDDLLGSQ
UniProt Q14244: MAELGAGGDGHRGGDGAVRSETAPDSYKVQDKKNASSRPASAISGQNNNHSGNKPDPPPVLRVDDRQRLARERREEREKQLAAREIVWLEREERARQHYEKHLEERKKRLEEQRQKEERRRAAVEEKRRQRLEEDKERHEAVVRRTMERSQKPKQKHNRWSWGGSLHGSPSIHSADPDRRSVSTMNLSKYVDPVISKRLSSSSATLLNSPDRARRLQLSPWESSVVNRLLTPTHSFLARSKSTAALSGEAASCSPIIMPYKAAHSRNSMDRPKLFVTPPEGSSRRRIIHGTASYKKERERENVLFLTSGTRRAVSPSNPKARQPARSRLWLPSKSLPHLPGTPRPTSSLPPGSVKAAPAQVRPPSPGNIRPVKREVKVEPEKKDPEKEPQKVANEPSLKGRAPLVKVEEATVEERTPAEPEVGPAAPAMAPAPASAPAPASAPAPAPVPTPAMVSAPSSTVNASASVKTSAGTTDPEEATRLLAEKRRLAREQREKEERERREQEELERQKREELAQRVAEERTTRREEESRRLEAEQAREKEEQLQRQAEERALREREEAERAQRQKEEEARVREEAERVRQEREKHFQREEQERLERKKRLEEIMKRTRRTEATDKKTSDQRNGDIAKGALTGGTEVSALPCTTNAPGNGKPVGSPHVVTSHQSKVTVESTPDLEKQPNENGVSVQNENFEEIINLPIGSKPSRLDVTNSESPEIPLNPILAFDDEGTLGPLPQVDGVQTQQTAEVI
UniProt Q9Y4F3: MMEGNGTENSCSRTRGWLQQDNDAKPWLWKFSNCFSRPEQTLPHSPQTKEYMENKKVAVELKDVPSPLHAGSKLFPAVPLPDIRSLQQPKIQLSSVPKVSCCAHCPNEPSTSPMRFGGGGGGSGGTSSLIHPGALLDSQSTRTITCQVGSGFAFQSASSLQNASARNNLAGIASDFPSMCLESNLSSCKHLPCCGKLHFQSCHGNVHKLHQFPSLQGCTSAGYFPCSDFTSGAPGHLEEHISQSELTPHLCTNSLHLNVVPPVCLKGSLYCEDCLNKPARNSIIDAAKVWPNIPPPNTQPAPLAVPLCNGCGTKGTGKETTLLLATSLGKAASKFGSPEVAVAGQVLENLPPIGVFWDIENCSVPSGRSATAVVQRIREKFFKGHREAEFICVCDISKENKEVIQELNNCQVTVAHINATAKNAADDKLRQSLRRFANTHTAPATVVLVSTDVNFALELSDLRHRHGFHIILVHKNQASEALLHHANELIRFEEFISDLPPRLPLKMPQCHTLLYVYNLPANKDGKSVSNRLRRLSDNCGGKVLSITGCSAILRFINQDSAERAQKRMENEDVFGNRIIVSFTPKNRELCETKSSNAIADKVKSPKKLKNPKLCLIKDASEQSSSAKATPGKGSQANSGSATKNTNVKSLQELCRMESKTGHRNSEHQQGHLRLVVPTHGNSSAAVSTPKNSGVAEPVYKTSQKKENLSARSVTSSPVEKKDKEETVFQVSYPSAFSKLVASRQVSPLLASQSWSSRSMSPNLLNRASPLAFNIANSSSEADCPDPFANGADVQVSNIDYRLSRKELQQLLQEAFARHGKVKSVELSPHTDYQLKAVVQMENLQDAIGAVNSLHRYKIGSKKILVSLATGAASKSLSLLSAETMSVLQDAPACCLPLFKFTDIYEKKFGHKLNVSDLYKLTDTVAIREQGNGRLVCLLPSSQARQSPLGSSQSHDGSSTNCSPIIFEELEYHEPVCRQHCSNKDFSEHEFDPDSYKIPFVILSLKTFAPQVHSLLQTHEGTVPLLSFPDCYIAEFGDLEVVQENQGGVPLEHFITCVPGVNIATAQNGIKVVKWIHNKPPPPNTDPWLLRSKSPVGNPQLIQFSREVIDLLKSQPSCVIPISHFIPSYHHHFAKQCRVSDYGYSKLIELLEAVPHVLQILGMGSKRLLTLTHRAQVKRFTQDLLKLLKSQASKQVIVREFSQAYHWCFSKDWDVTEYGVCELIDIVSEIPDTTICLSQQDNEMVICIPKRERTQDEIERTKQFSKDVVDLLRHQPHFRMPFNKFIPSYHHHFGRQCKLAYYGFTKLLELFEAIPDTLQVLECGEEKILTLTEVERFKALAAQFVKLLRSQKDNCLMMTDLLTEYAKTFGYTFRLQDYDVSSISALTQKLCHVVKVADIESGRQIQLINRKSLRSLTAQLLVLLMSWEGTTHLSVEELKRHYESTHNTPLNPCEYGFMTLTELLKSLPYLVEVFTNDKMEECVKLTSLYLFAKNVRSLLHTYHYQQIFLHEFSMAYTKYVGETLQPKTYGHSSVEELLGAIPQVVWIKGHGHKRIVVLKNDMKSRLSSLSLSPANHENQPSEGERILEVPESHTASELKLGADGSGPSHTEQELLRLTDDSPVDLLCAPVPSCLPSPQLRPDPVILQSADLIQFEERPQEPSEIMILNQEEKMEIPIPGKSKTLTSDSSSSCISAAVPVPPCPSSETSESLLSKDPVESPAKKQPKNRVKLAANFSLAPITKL
UniProt Q9BRK4: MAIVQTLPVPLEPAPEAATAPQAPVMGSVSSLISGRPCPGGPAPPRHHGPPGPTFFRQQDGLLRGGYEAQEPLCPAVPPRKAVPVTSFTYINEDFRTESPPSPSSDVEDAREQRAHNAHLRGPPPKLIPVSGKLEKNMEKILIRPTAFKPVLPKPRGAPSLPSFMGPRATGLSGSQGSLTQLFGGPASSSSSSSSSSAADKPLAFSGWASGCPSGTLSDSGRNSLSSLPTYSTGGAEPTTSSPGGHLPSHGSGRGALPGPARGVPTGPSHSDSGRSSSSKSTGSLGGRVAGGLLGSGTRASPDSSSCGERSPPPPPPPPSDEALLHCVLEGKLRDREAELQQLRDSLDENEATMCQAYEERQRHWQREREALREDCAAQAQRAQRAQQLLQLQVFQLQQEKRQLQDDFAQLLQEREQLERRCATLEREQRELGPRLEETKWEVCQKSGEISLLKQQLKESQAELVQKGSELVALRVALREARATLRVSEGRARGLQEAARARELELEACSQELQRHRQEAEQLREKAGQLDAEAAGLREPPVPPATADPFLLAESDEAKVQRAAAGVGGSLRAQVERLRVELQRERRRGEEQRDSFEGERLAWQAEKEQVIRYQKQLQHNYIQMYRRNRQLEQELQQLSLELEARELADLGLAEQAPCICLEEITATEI

Compound in this assay: CC(C)C1=C2N=C(C=C(N2N=C1)NCC3=CC=CC=C3)NCCCCCCN
The experiment in a line: log2 fold change, soluble protein after heating vs DMSO (PISA); higher = thermal stabilisation; K562 lysate, 10 uM; active = over 0.2 and 3.5 SD of the protein, either way, in both replicates (recomputed). Put shortly: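 Following dounce homogenisation of K562 pellets in PBS pH 7.4 with 1 mM MgCl2, crude extract at 1 mg/mL protein was incubated for 30 min with 10 μM compound. Aliquots were then heated for 3 min over 48°C-58°C and pooled, NP-40 was added to 0.5% at 4°C, and soluble protein was recovered as the supernatant at 21,000xg for 90 min. Channel-sum-equalised TMTpro 16plex LC-MS/MS quantified this protein. Each value, from duplicates, is a log-two fold change in thermal stability relative to solvent controls.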
With LUC7L3 (UniProt O95232), the log2 fold change was inactive: -0.001.
In the case of MACF1, A0A0A6YYJ5 it was inactive: 0.033.
With LTO1 (UniProt Q8WV07), the log2 fold change is inactive: -0.041.
For MANEA (UniProt Q5SRI9), the log2 fold change is inactive: 0.041.
In the case of MAPRE3 isoform 2 (UniProt Q9UPY8) it was inactive: 0.044; in that of LTBP4 (UniProt Q8N2S1), inactive: 0.011; in that of MANBAL (UniProt Q9NQG1), inactive: -0.082.
To MAP4K2 (UniProt Q12851) belongs inactive: 0.04; to MAST2 (UniProt Q6P0Q8), inactive: 0.071.
In the case of MAGI3 isoform 1 (UniProt Q5TCQ9) it was inactive: 0.044.
On to MAML1 (UniProt Q92585), for which the log2 fold change was inactive: 0.013.
As for MAP4 isoform 5 (UniProt P27816), the log2 fold change is inactive: 0.03.
To MAP4K5 (UniProt Q9Y4K4) belongs inactive: 0.098; to MAPK12 (UniProt P53778), inactive: -0.027; to MAP7 (UniProt Q14244), inactive: -0.01.
To MARF1 (UniProt Q9Y4F3) belongs inactive: -0.045.
To MAN2B2 (UniProt Q9Y2E5) belongs inactive: -0.051; to MAP4 (UniProt E7EVA0), inactive: 0.036; to MARCHF6 (UniProt O60337), inactive: -0.012.
As for MAP4K4 isoform 6 (UniProt O95819), the log2 fold change is inactive: -0.021.
To LZTS2 (UniProt Q9BRK4) belongs inactive: -0.039; to LTBR (UniProt P36941), inactive: -0.103; to MAP7D3 (UniProt Q8IWC1), inactive: -0.22.

The values are drawn from the supplement of paper PMC10849652.
